These are yes or no findings as the source states them, for the method shown. In cells and extracts the contact can be indirect. Some entries that bind do so weakly or less than the wild type.

Sequences of proteins named here, by UniProt entry; tags and fusion partners are left off.
UniProt O15379: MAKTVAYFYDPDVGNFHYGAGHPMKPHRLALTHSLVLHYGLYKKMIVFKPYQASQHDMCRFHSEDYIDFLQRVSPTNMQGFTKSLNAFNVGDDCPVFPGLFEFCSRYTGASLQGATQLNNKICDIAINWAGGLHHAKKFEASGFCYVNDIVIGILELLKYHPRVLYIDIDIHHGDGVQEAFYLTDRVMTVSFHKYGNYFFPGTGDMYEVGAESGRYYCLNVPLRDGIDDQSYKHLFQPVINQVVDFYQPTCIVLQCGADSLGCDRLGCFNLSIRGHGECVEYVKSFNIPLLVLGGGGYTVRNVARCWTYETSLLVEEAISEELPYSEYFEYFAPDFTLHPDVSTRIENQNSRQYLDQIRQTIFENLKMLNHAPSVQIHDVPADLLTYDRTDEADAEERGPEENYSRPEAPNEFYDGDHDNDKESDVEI

The test concerns the target T1, Methyl-CpG-binding protein 1 (MBD1) (human (endogenous in SGC-7901)) (UniProt Q9UIS9).
T1 sequence: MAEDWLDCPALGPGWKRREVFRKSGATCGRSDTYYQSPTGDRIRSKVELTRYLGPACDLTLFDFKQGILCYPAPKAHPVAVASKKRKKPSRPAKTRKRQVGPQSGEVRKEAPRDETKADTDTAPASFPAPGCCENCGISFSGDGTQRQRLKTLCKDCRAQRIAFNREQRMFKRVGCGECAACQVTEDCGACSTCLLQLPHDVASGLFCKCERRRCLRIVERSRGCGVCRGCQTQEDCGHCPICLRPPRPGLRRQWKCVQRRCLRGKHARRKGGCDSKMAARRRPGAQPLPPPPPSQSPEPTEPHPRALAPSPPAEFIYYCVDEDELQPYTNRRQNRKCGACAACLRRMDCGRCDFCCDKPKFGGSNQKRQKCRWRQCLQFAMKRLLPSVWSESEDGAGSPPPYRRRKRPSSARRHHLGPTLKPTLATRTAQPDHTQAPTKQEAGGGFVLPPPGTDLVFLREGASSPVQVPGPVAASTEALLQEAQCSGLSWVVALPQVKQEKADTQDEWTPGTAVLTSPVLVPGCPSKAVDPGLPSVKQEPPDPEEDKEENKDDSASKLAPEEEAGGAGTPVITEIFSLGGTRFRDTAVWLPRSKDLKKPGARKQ
As to the kind of experiment: co-IP; total protein of SGC-7901 cells; 10 ug of MBD1, HDAC3 antibody added to 300 ul of cell lysis for 30 min at 4 C, Dynal magnetic beads 2 h, boiled, Western blot.

On to “histone deacetylase (HDAC3) (from UniProt O15379 1-428)”, for which the binding entry was “binds”.

Source of the values: article PMC9365560.
